For the experiment, the target named is ORF9B–Twin-Strep-tag (SARS-CoV-2 ORF9B, C-terminally Twin-Strep-tagged) (SARS-CoV-2) (UniProt P0DTD2). Kind of experiment: proximity labelling.

By UniProt entry, the sequences of proteins in these tests, tags left out. Where a name states a change or a piece, a line headed by the entry shows the natural chain unless it says otherwise.
UniProt P0DTD2, whole entry, stated change not applied: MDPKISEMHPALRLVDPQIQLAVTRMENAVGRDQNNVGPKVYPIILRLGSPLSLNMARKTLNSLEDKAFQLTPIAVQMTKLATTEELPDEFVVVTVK

Among the data in article doi:10.1101/2025.05.06.652320 are binding values, retold here.

These are yes or no findings as the source states them, for the method shown. In cells and extracts the contact can be indirect. A yes stands for co-enrichment or nearness to the bait. Other partners may have been found.

Turning to “casein kinase CSNK2A1 (from UniProt P68400 1-391)”, the binding entry is “binds”.
With “glycosyltransferase POMGNT1 (from UniProt Q8WZA1 1-660)” the entry was “binds”; with “proteasomal subunit PSMD13 (from UniProt Q9UNM6 1-376)”, “binds”; with “proteasomal subunit PSMD12 (from UniProt O00232 1-456)”, “binds”.
With “DNA damage checkpoint kinase CHEK2 (from UniProt O96017 1-543)” the entry was “binds”.

B1: E3 ubiquitin ligase RNF123 (protein, UniProt Q5XPI4 1-1314)
chain: MASKGAGMSFSRKSYRLTSDAEKSRVTGIVQEKLLNDYLNRIFSSSEHAPPAATSRKPLNFQNLPEHLDQLLQVDNEEEESQGQVEGRLGPSTVVLDHTGGFEGLLLVDDDLLGVIGHSNFGTIRSTTCVYKGKWLYEVLISSQGLMQIGWCTISCRFNQEEGVGDTHNSYAYDGNRVRKWNVTTTNYGKAWAAGDIVSCLIDLDDGTLSFCLNGVSLGTAFENLSRGLGMAYFPAISLSFKESVAFNFGSRPLRYPVAGYRPLQDPPSADLVRAQRLLGCFRAVLSVELDPVEGRLLDKESSKWRLRGQPTVLLTLAHIFHHFAPLLRKVYLVEAVLMSFLLGIVEKGTPTQAQSVVHQVLDLLWLFMEDYEVQDCLKQLMMSLLRLYRFSPIVPDLGLQIHYLRLTIAILRHEKSRKFLLSNVLFDVLRSVVFFYIKSPLRVEEAGLQELIPTTWWPHCSSREGKESTEMKEETAEERLRRRAYERGCQRLRKRIEVVEELQVQILKLLLDNKDDNGGEASRYIFLTKFRKFLQENASGRGNMPMLCPPEYMVCFLHRLISALRYYWDEYKASNPHASFSEEAYIPPQVFYNGKVDYFDLQRLGGLLSHLRKTLKDDLASKANIVIDPLELQSTAMDDLDEDEEPAPAMAQRPMQALAVGGPLPLPRPGWLSSPTLGRANRFLSTAAVSLMTPRRPLSTSEKVKVRTLSVEQRTREDIEGSHWNEGLLLGRPPEEPEQPLTENSLLEVLDGAVMMYNLSVHQQLGKMVGVSDDVNEYAMALRDTEDKLRRCPKRRKDILAELTKSQKVFSEKLDHLSRRLAWVHATVYSQEKMLDIYWLLRVCLRTIEHGDRTGSLFAFMPEFYLSVAINSYSALKNYFGPVHSMEELPGYEETLTRLAAILAKHFADARIVGTDIRDSLMQALASYVCYPHSLRAVERIPEEQRIAMVRNLLAPYEQRPWAQTNWILVRLWRGCGFGYRYTRLPHLLKTKLEDANLPSLQKPCPSTLLQQHMADLLQQGPDVAPSFLNSVLNQLNWAFSEFIGMIQEIQQAAERLERNFVDSRQLKVCATCFDLSVSLLRVLEMTITLVPEIFLDWTRPTSEMLLRRLAQLLNQVLNRVTAERNLFDRVVTLRLPGLESVDHYPILVAVTGILVQLLVRGPASEREQATSVLLADPCFQLRSICYLLGQPEPPAPGTALPAPDRKRFSLQSYADYISADELAQVEQMLAHLTSASAQAAAASLPTSEEDLCPICYAHPISAVFQPCGHKSCKACINQHLMNNKDCFFCKTTIVSVEDWEKGANTSTTSSAA
For B1, the binding result is “binds”.
